From doi:10.1101/2023.08.30.555532

Amino acid sequences for entries named in this document (tags omitted).
UniProt Q9UHP3: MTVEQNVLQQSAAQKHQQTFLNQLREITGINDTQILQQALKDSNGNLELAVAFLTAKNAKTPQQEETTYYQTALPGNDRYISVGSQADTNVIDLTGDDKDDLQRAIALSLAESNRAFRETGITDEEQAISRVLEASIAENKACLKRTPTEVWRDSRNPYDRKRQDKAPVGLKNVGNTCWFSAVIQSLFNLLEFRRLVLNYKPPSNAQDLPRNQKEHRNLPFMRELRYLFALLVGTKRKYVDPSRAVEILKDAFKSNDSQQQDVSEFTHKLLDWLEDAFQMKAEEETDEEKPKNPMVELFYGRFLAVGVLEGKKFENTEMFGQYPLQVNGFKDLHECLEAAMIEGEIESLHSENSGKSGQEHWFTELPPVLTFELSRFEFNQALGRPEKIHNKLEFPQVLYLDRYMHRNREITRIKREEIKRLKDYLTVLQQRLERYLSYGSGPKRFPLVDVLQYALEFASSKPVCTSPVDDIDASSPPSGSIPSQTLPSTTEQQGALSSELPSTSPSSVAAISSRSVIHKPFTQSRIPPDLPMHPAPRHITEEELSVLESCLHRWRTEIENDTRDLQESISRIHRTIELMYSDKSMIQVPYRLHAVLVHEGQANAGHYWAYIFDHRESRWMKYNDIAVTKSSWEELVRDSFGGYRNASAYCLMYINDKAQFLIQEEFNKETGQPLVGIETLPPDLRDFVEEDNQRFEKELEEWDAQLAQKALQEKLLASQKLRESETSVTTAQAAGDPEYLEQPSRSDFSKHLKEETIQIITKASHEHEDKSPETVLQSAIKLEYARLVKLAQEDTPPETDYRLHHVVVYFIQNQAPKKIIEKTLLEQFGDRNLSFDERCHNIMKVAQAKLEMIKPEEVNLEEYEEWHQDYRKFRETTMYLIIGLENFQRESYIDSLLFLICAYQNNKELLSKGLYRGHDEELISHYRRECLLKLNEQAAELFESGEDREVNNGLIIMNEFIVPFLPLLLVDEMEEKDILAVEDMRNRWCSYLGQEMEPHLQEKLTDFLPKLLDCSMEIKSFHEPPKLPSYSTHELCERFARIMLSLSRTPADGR

Legend:
Flag-GC [1] = target: T1, Flag-GC (UniProt P02774); assay: affinity purification with mass spectrometry
T1 sequence: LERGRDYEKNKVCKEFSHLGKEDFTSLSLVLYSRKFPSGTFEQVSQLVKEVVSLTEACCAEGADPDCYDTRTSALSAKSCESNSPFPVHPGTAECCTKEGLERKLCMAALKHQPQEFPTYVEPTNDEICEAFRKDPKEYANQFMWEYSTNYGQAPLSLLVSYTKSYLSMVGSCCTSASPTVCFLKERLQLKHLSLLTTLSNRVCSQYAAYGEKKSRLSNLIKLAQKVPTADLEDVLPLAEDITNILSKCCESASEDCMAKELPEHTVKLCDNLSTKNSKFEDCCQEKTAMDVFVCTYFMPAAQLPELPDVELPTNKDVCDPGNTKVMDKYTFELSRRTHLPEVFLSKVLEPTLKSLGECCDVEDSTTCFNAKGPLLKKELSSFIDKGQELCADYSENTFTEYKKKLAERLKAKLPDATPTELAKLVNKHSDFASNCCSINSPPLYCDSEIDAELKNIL

Flag-GC [2] = target: T1, Flag-GC; assay: affinity purification with mass spectrometry; remark: listed apart in the source

binding (Flag-GC [1]): binds
Molecule: USP25 (from UniProt Q9UHP3 1-1055) (enzyme)

binding (Flag-GC [2]): binds
B1: DNase1L3 (endogenous, PLC-PRF-5 cells) (enzyme, UniProt Q13609 21-305)
chain: MRICSFNVRSFGESKQEDKNAMDVIVKVIKRCDIILVMEIKDSNNRICPILMEKLNRNSRRGITYNYVISSRLGRNTYKEQYAFLYKEKLVSVKRSYHYHDYQDGDADVFSREPFVVWFQSPHTAVKDFVIIPLHTTPETSVKEIDELVEVYTDVKHRWKAENFIFMGDFNAGCSYVPKKAWKNIRLRTDPRFVWLIGDQEDTTVKKSTNCAYDRIVLRGQEIVSSVVPKSNSVFDFQKAYKLTEEEALDVSDHFPVEFKLQSSRAFTNSKKSVTLRKKTKSKRS

Read-outs that look alike come from different tables or passages of the source. Results are given in words; binding and its absence hold for the method and conditions named. Binding seen in cells or lysates may run through a third protein. These calls come from enrichment with a bait or labelling near it, and not all partners need be listed. Where a sequence is shown, tags or fusion partners need not be part of it. One block for each molecule: values may come before it.
